Results as given in paper PMC4507757.
Results are given in words; binding and its absence hold for the method and conditions named. A result given as binding can be weak or reduced; the word gives no strength. For some of these results: In cells and extracts the contact can be indirect.

T1: starch branching enzyme I (BEI) (rice, Oryza sativa L. japonica cv. Nipponbare (endogenous in developing endosperm)) (UniProt Q01401)
T1 sequence: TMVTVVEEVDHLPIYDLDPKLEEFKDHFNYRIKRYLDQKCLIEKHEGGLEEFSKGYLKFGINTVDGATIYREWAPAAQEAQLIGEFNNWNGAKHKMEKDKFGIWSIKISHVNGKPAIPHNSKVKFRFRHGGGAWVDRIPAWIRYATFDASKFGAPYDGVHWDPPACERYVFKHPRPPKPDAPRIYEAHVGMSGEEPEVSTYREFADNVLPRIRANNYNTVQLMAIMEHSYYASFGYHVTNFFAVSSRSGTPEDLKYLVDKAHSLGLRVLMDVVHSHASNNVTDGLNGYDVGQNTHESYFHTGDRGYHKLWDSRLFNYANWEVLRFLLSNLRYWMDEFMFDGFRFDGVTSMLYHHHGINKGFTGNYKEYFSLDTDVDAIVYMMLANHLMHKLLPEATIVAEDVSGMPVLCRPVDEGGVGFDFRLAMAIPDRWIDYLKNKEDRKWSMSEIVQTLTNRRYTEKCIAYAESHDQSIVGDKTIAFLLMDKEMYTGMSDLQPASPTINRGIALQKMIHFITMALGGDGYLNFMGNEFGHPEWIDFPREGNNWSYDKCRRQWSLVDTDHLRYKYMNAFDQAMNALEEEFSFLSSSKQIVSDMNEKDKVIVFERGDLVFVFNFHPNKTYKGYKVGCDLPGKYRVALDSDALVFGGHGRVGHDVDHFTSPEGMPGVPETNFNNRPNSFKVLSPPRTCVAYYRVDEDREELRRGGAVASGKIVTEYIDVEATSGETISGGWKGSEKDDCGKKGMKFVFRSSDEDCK

T2: starch synthase I (SSI) (rice, Oryza sativa L. japonica cv. Nipponbare (endogenous in developing endosperm)) (UniProt Q0DEC8)
T2 sequence: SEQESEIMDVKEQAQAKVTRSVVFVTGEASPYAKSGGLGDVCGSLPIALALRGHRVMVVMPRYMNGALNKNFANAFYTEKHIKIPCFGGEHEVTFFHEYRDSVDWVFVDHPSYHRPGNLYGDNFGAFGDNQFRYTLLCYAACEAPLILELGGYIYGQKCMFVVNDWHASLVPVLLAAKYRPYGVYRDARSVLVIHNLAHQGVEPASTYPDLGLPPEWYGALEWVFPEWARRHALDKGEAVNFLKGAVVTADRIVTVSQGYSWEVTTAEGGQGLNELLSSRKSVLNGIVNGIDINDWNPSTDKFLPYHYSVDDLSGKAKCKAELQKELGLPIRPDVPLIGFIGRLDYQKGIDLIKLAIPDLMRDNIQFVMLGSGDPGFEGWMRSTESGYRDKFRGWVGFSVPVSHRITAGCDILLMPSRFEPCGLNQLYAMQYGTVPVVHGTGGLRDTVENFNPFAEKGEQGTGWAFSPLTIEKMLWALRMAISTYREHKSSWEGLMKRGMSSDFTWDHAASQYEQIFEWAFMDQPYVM

T3: starch synthase IIa (SSIIa) (rice, Oryza sativa L. japonica cv. Nipponbare (endogenous in developing endosperm)) (UniProt Q0DDE3)
T3 sequence: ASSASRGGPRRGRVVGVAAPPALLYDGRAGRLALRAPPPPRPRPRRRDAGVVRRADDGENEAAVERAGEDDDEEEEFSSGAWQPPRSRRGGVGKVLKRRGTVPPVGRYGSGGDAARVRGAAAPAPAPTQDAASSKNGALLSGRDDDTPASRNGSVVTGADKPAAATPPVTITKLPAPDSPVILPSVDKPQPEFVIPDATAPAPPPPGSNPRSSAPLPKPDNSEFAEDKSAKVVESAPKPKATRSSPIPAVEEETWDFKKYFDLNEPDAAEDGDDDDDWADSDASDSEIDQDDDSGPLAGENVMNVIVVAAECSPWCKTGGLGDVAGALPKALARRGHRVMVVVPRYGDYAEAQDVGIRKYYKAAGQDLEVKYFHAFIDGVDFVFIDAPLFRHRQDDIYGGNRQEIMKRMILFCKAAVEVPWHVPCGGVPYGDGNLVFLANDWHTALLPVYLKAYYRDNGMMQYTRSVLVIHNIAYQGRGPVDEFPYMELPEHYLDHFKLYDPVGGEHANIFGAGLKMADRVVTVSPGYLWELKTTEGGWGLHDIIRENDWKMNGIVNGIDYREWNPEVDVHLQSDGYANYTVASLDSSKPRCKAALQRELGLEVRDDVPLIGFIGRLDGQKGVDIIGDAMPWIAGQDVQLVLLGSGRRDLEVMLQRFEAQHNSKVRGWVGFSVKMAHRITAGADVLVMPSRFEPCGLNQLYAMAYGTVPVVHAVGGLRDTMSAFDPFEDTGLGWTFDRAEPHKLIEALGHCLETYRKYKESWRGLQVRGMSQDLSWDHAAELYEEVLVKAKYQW

B1: starch synthase I (SSI) (enzyme, UniProt Q0DEC8 114-641)
chain: SEQESEIMDVKEQAQAKVTRSVVFVTGEASPYAKSGGLGDVCGSLPIALALRGHRVMVVMPRYMNGALNKNFANAFYTEKHIKIPCFGGEHEVTFFHEYRDSVDWVFVDHPSYHRPGNLYGDNFGAFGDNQFRYTLLCYAACEAPLILELGGYIYGQKCMFVVNDWHASLVPVLLAAKYRPYGVYRDARSVLVIHNLAHQGVEPASTYPDLGLPPEWYGALEWVFPEWARRHALDKGEAVNFLKGAVVTADRIVTVSQGYSWEVTTAEGGQGLNELLSSRKSVLNGIVNGIDINDWNPSTDKFLPYHYSVDDLSGKAKCKAELQKELGLPIRPDVPLIGFIGRLDYQKGIDLIKLAIPDLMRDNIQFVMLGSGDPGFEGWMRSTESGYRDKFRGWVGFSVPVSHRITAGCDILLMPSRFEPCGLNQLYAMQYGTVPVVHGTGGLRDTVENFNPFAEKGEQGTGWAFSPLTIEKMLWALRMAISTYREHKSSWEGLMKRGMSSDFTWDHAASQYEQIFEWAFMDQPYVM
B2: starch branching enzyme I (BEI) (enzyme, UniProt Q01401 65-820)
chain: TMVTVVEEVDHLPIYDLDPKLEEFKDHFNYRIKRYLDQKCLIEKHEGGLEEFSKGYLKFGINTVDGATIYREWAPAAQEAQLIGEFNNWNGAKHKMEKDKFGIWSIKISHVNGKPAIPHNSKVKFRFRHGGGAWVDRIPAWIRYATFDASKFGAPYDGVHWDPPACERYVFKHPRPPKPDAPRIYEAHVGMSGEEPEVSTYREFADNVLPRIRANNYNTVQLMAIMEHSYYASFGYHVTNFFAVSSRSGTPEDLKYLVDKAHSLGLRVLMDVVHSHASNNVTDGLNGYDVGQNTHESYFHTGDRGYHKLWDSRLFNYANWEVLRFLLSNLRYWMDEFMFDGFRFDGVTSMLYHHHGINKGFTGNYKEYFSLDTDVDAIVYMMLANHLMHKLLPEATIVAEDVSGMPVLCRPVDEGGVGFDFRLAMAIPDRWIDYLKNKEDRKWSMSEIVQTLTNRRYTEKCIAYAESHDQSIVGDKTIAFLLMDKEMYTGMSDLQPASPTINRGIALQKMIHFITMALGGDGYLNFMGNEFGHPEWIDFPREGNNWSYDKCRRQWSLVDTDHLRYKYMNAFDQAMNALEEEFSFLSSSKQIVSDMNEKDKVIVFERGDLVFVFNFHPNKTYKGYKVGCDLPGKYRVALDSDALVFGGHGRVGHDVDHFTSPEGMPGVPETNFNNRPNSFKVLSPPRTCVAYYRVDEDREELRRGGAVASGKIVTEYIDVEATSGETISGGWKGSEKDDCGKKGMKFVFRSSDEDCK
B3: starch synthase IIa (SSIIa) (enzyme, UniProt Q0DDE3 17-810)
chain: ASSASRGGPRRGRVVGVAAPPALLYDGRAGRLALRAPPPPRPRPRRRDAGVVRRADDGENEAAVERAGEDDDEEEEFSSGAWQPPRSRRGGVGKVLKRRGTVPPVGRYGSGGDAARVRGAAAPAPAPTQDAASSKNGALLSGRDDDTPASRNGSVVTGADKPAAATPPVTITKLPAPDSPVILPSVDKPQPEFVIPDATAPAPPPPGSNPRSSAPLPKPDNSEFAEDKSAKVVESAPKPKATRSSPIPAVEEETWDFKKYFDLNEPDAAEDGDDDDDWADSDASDSEIDQDDDSGPLAGENVMNVIVVAAECSPWCKTGGLGDVAGALPKALARRGHRVMVVVPRYGDYAEAQDVGIRKYYKAAGQDLEVKYFHAFIDGVDFVFIDAPLFRHRQDDIYGGNRQEIMKRMILFCKAAVEVPWHVPCGGVPYGDGNLVFLANDWHTALLPVYLKAYYRDNGMMQYTRSVLVIHNIAYQGRGPVDEFPYMELPEHYLDHFKLYDPVGGEHANIFGAGLKMADRVVTVSPGYLWELKTTEGGWGLHDIIRENDWKMNGIVNGIDYREWNPEVDVHLQSDGYANYTVASLDSSKPRCKAALQRELGLEVRDDVPLIGFIGRLDGQKGVDIIGDAMPWIAGQDVQLVLLGSGRRDLEVMLQRFEAQHNSKVRGWVGFSVKMAHRITAGADVLVMPSRFEPCGLNQLYAMAYGTVPVVHAVGGLRDTMSAFDPFEDTGLGWTFDRAEPHKLIEALGHCLETYRKYKESWRGLQVRGMSQDLSWDHAAELYEEVLVKAKYQW

Key:
[1] = molecular target: T1, starch branching enzyme I (BEI) (rice, Oryza sativa L. japonica cv. Nipponbare (endogenous in developing endosperm)); assay: co-IP; soluble extract of developing rice endosperm mixed with isozyme-specific antibodies (pre-immune serum as control) 1.5 h at 4 °C, protein A-Sepharose 1 h at 4 °C; 10 mM HEPES-KOH pH 7.5, 100 mM NaCl, 1 mM DTT; eight washes; bound proteins analysed by western blotting
[2] = molecular target: T2, starch synthase I (SSI) (rice, Oryza sativa L. japonica cv. Nipponbare (endogenous in developing endosperm)); assay: as above
[3] = molecular target: T3, starch synthase IIa (SSIIa) (rice, Oryza sativa L. japonica cv. Nipponbare (endogenous in developing endosperm)); assay: as above
[4] = molecular target: starch branching enzyme IIa (BEIIa) (rice, Oryza sativa L. japonica cv. Nipponbare (endogenous in developing endosperm)); assay: as above
[5] = molecular target: starch branching enzyme IIb (BEIIb) (rice, Oryza sativa L. japonica cv. Nipponbare (endogenous in developing endosperm)); assay: as above
[6] = molecular target: starch branching enzyme IIb (BEIIb) (rice, Oryza sativa L. japonica cv. Nipponbare (endogenous in developing endosperm)); assay: SEC; gel permeation chromatography of soluble developing rice endosperm extract on Superdex 200 10/300 at 4 °C; 10 mM HEPES-KOH pH 7.5, 100 mM NaCl; fractions analysed by western blotting and native-PAGE zymograms
[7] = molecular target: starch branching enzyme IIb (BEIIb) (rice, Oryza sativa L. japonica cv. Nipponbare (endogenous in developing endosperm)); assay: native gel or EMSA; blue native PAGE (3-12% acrylamide BIS-TRIS) of developing rice endosperm extract; western blotting of lane slices from a single gel
[8] = molecular target: pullulanase (PUL) (rice, Oryza sativa L. japonica cv. Nipponbare (endogenous in developing endosperm)); assay: co-IP; soluble extract of developing rice endosperm mixed with isozyme-specific antibodies (pre-immune serum as control) 1.5 h at 4 °C, protein A-Sepharose 1 h at 4 °C; 10 mM HEPES-KOH pH 7.5, 100 mM NaCl, 1 mM DTT; eight washes; bound proteins analysed by western blotting

Molecule | binding [1] | binding [4] | binding [5] | also measured
starch branching enzyme IIb (BEIIb) | binds | – | – | binding [2]: binds; binding [3]: binds
pullulanase (PUL) (enzyme) | binds | – | – | –
B1 | – | binds weakly | binds | binding [6]: binds; binding [7]: binds
B2 | – | binds weakly | binds | binding [8]: binds
B3 | – | binds weakly | binds | –
